Data published in publication PMC4814116, “Design of Novel Relaxase Substrates Based on Rolling Circle Replicases for Bioconjugation to DNA Nanostructures”.
No constants are given. Whether binding was seen depends on the method and setting. Each block holds one binder with its values, some of them ahead of it.

What was measured:
Assay in all cases: SEC; Superdex75 10/300 GL; 100 mM Tris-HCl pH 7.6, 500 mM NaCl, 0.1 mM EDTA; each relaxase alone; both purified
[1] = target: N-terminal relaxase domain of TrwC (residues 1 to 293) of plasmid R388 (plasmid R388) (UniProt Q47673)
[2] = target: N-terminal fragment of RSF1010 MobA (first 186 residues) (plasmid RSF1010) (UniProt P07112)
[3] = target: N-terminal domain (270 residues) of RP4 TraI (plasmid RP4) (UniProt Q00191)

binding [1]: no binding
B1: N-terminal relaxase domain of TrwC (residues 1 to 293) of plasmid R388 (domain or fragment, UniProt Q47673 1-293)
chain: MLSHMVLTRQDIGRAASYYEDGADDYYAKDGDASEWQGKGAEELGLSGEVDSKRFRELLAGNIGEGHRIMRSATRQDSKERIGLDLTFSAPKSVSLQALVAGDAEIIKAHDRAVARTLEQAEARAQARQKIQGKTRIETTGNLVIGKFRHETSRERDPQLHTHAVILNMTKRSDGQWRALKNDEIVKATRYLGAVYNAELAHELQKLGYQLRYGKDGNFDLAHIDRQQIEGFSKRTEQIAEWYAARGLDPNSVSLEQKQAAKVLSRAKKTSVDREALRAEWQATAKELGIDFS

binding [2]: no binding
B2: N-terminal fragment of RSF1010 MobA (first 186 residues) (domain or fragment, UniProt P07112 1-186)
chain: MAIYHLTAKTGSRSGGQSARAKADYIQREGKYARDMDEVLHAESGHMPEFVERPADYWDAADLYERANGRLFKEVEFALPVELTLDQQKALASEFAQHLTGAERLPYTLAIHAGGGENPHCHLMISERINDGIERPAAQWFKRYNGKTPEKGGAQKTEALKPKAWLEQTREAWADHANRALERAGH

binding [3]: no binding
B3: N-terminal domain (270 residues) of RP4 TraI (domain or fragment, UniProt Q00191 1-270)
chain: MIAKHVPMRSIKKSDFAELVKYITDEQGKTERLGHVRVTNCEANTLPAVMAEVMATQHGNTRSEADKTYHLLVSFRAGEKPDAETLRAIEDRICAGLGFAEHQRVSAVHHDTDNLHIHIAINKIHPTRNTIHEPYRAYRALADLCATLERDYGLERDNHETRQRVSENRANDMERHAGVESLVGWIKRECLPELQAAQSWEDLHRVLRENGLKLRERGNGFIFEAGDGTTVKASTVSRDLSKPKLEARFGAFTPAEGGEAPRRREYRAKP
